According to publication PMC12069340 (Frontiers in Cellular and Infection Microbiology, 2025):

Experiment: in vitro
Conditions: human, Relative Viability (%)

| SMILES | viability at 20 µM [%] |
| --- | --- |
| CN1[C@@H]2CC[C@H]1C[C@@H](OC(=O)C(CO)c1ccccc1)C2 (some centres unmarked) [Atropine] | 164 |
| CCN(CC)CC(=O)Nc1c(C)cccc1C [Lidocaine] | 94.2 |
